{
  "sequences": {"note": "Sequences of proteins named here, by UniProt entry; tags and fusion partners are left off. A change or cut given only in a name is not applied to a line headed by its entry.", "UniProt P20813": "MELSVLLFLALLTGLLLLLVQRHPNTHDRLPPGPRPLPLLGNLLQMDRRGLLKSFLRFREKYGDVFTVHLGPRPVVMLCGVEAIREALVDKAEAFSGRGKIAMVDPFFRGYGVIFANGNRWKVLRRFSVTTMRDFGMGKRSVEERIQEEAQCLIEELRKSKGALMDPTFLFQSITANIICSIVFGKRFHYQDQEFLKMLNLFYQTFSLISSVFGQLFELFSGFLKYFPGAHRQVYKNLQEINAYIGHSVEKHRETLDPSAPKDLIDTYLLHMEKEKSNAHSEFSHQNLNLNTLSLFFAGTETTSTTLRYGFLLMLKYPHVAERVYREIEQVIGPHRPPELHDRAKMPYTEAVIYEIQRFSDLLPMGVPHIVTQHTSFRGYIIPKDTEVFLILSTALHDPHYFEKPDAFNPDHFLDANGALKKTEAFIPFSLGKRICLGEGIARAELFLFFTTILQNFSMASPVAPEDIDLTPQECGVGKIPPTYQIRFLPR"},
  "source": "PubChem BioAssay (EPA / NIEHS)",
  "note": "Inconclusive means that the source gave no clear call. Such entries were picked first, then a sample of the others. A potency beside an inconclusive call is a rough fit, not a confirmed value. The source made the active and inactive calls. Rule for the calls: active = hit-call score of the fitted dose curve at least 0.9, where 1 is the maximum; inconclusive = response in the unintended direction; inactive = score below 0.9.",
  "data": [
    {"read-out": "Cytochrome P450 2B6 (Homo sapiens) (UniProt P20813)", "assay": "CLD_CYP2B6_24hr: CellzDirect (CLD) Gene Expression Assay for xenobiotic metabolism (CYP2B6) at 24 hours (AID 2283686)", "procedure": "CLD_24hr is a cell-based, multiplexed-readout assay that uses hepatocyte, a human liver primary cell, with measurements taken at 24 hours after chemical dosing in a 96-well plate.CLD_CYP2B6_24hr is one of 16 assay component(s) measured or calculated from the CLD_24hr assay. It is designed to make measurements of mRNA induction, a form of inducible reporter, as detected with chemiluminescence signals by Quantitative Nuclease Protection Assay (qNPA) technology.Data from the assay component CLD_CYP2B6_24hr was analyzed at the endpoint, CLD_CYP2B6_24hr, in the positive analysis fitting direction relative to DMSO as the negative control and baseline of activity. Using a type of inducible reporter, gain-of-signal activity can be used to understand changes in the reporter gene as they relate to the gene CYP2B6. Furthermore, this assay endpoint can be referred to as a primary readout. To generalize the intended target to other relatable targets, this assay endpoint is annotated to the cyp intended target family, where subfamily is xenobiotic metabolism.\nHuman hepatocyte cultures were treated daily for two consecutive days with fresh dosing solutions containing appropriate concentrations of the 320 ToxCast chemicals (chemical identities were blinded to CellzDirect and other ToxCast collaborators), vehicle control (0.2% DMSO), and positive control inducers as summarized in Table 1. Due to the large number of treatment groups and chemicals examined, the ToxCast chemicals were divided into two groups (spanning two independent cultures of hepatocytes from separate donor preparations (Hu778: ToxCast plates 1 and 2; Hu776: ToxCast plates 3 and 4). Each preparation of human hepatocyte cultures was treated with respective vehicle control, medium only control, set of six positive controls/reference chemicals for the five hepatic receptor pathways, and a subset of eight of the ToxCast chemicals (indoxacarb, pyrithiobac-sodium, norflurazon, cyhalofop-butyl, methomyl, thiram, acetochlor, and propiconazole). These replicate data, coupled with internal replicates designed within the blinded ToxCast chemical library, provided additional data to evaluate interindividual differences between hepatocyte preparations and their potential impact on chemical profiles.Cell morphology and integrity were evaluated using phase-contrast microscopy as an indicator of hepatocyte cell health (Tyson & Green, 1987). Cultures for each treatment group (i.e., media, vehicle [0.2% DMSO], positive control inducers [multiple concentrations], and the ToxCast chemicals [multiple concentrations]) were observed and cell morphology was assessed relative to vehicle control cultures at each harvest time point (0, 6, 24, or 48 h). […] Images were evaluated at the conclusion of the study to assess changes in cell integrity and account for the effects of chemical exposure on uncharacteristic changes in concentration-dependent gene expression profiles. The results from these determinations of apparent cytotoxicity were annotated (yes/no) alongside the corresponding qNPA data for reference.At the conclusion of each treatment period, hepatocyte cultures (96-well) were washed with 1 volume of HBSS, lysed by addition of 25 ul ArrayPlate lysis buffer (HTG, Tucson, AZ), and 70 ul/well of Denaturation Oil, denatured by incubation at 95C for 10 min, and frozen at approximately -70C until analysis by nuclease protection assay (qNPA) (Roberts et al., 2007). For qNPA analysis, cell lysates were thawed at 50C for approximately 30 min, qNPA probes were added, and samples were incubated at 95C for 10 min to begin the detection process by denaturing the target RNA, dissociating the duplexes and secondary structure hybridization. At the conclusion of the hybridization period, S1 nuclease reagent was added to each sample to digest all nonprotected nucleotides at 50C for 60-90 min. […]", "values": [
      {"molecule": "O=C(Nc1ccccc1)Nc1cnns1", "AC50": "inconclusive: 20000 nM"},
      {"molecule": "O=C1c2ccccc2C(=O)N1SC(Cl)(Cl)Cl", "AC50": "inconclusive: 2.51 nM"},
      {"molecule": "COP(=O)(OC)SCn1c(=O)oc2cc(Cl)cnc21", "AC50": "inconclusive: 20000 nM"},
      {"molecule": "CC1(C)CCC(=Cc2ccc(Cl)cc2)C1(O)Cn1cncn1", "note": "(centres undefined)", "AC50": "active: 3580 nM"},
      {"molecule": "CN(C)C(=S)SSC(=S)N(C)C", "AC50": "inconclusive: 36300 nM"},
      {"molecule": "O=C1C2CC=CCC2C(=O)N1SC(Cl)(Cl)Cl", "note": "(centres undefined)", "AC50": "inconclusive: 1930 nM"},
      {"molecule": "C=CCC1=C(C)C(OC(=O)C2C(C=C(C)C)C2(C)C)CC1=O", "note": "(centres undefined)", "outcome": "inactive"},
      {"molecule": "CCOc1nc(NC)nc(NC(=O)NS(=O)(=O)c2ccccc2C(=O)OC)n1", "AC50": "inconclusive: 1.03 nM"},
      {"molecule": "CC(C)(C)c1ccc(CSc2cnn(C(C)(C)C)c(=O)c2Cl)cc1", "AC50": "inconclusive: 160 nM"},
      {"molecule": "CNC(=O)Oc1cccc(N=CN(C)C)c1", "AC50": "inconclusive: 20000 nM"},
      {"molecule": "COc1cc(OC)nc(NC(=O)NS(=O)(=O)c2ncccc2OCC(F)(F)F)n1", "AC50": "inconclusive: 0.4 nM"},
      {"molecule": "N#Cc1cc(Br)c(O)c(Br)c1", "AC50": "inconclusive: 0.4 nM"},
      {"molecule": "CC1(c2ccc(Oc3ccccc3)cc2)OC(=O)N(Nc2ccccc2)C1=O", "note": "(centres undefined)", "AC50": "inconclusive: 0.821 nM"},
      {"molecule": "CCN(CC)c1nc(C)cc(OP(=S)(OC)OC)n1", "AC50": "active: 902 nM"},
      {"molecule": "CCN(CC)C(=O)C(C)Oc1cccc2ccccc12", "note": "(centres undefined)", "outcome": "inactive"},
      {"molecule": "COP(N)(=O)SC", "note": "(centres undefined)", "AC50": "inconclusive: 51.1 nM"},
      {"molecule": "CNC(=S)S", "AC50": "inconclusive: 20000 nM"},
      {"molecule": "O=[N+]([O-])c1c(Cl)c(Cl)c(Cl)c(Cl)c1Cl", "AC50": "active: 4020 nM"},
      {"molecule": "C[N+]1(C)CCCCC1", "AC50": "inconclusive: 20000 nM"},
      {"molecule": "O=C(Nc1ccccc1-c1ccc(Cl)cc1)c1cccnc1Cl", "AC50": "active: 427 nM"},
      {"molecule": "Cc1ccc(-c2c(Cl)nc(C#N)n2S(=O)(=O)N(C)C)cc1", "AC50": "inconclusive: 33900 nM"},
      {"molecule": "CN1CSC(=S)N(C)C1", "AC50": "inconclusive: 20000 nM"},
      {"molecule": "Cn1c(-c2ccccc2)cc(-c2ccccc2)[n+]1C", "AC50": "inconclusive: 193 nM"},
      {"molecule": "CNC(=O)ON=CC(C)(C)SC", "outcome": "inactive"}
    ]}
  ]
}
